According to the supplement of paper PMC12819154, “High-throughput peptide-centric local stability assay extends protein–ligand identification to membrane proteins, tissues and bacteria” (Nature Structural & Molecular Biology, 2025):
This is one part of the list. Most entries show no effect beyond the scatter of the controls.

Sequences of proteins named here, by UniProt entry; tags and fusion partners are left off. A change or cut given only in a name is not applied to a line headed by its entry.
UniProt Q15554: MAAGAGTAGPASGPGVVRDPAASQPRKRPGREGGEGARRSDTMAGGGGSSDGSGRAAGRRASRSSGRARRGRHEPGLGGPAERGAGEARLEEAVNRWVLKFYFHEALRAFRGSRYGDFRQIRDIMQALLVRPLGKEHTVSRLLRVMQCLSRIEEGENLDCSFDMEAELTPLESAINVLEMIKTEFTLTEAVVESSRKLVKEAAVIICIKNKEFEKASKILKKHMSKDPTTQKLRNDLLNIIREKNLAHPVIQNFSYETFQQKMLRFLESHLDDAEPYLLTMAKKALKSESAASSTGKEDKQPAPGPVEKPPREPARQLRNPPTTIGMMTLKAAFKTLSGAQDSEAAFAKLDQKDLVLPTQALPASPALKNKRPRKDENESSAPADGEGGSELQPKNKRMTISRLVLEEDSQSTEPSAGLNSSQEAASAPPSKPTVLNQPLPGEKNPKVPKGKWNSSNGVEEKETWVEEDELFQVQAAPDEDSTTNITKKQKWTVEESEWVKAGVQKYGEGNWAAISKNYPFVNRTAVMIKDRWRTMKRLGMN
UniProt Q15544, whole entry: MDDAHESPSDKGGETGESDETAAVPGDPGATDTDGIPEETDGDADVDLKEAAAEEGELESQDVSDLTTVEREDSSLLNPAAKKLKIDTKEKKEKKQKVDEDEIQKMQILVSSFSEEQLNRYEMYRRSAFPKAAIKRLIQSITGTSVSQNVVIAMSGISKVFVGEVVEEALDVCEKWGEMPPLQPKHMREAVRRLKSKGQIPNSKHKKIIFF
UniProt Q15155: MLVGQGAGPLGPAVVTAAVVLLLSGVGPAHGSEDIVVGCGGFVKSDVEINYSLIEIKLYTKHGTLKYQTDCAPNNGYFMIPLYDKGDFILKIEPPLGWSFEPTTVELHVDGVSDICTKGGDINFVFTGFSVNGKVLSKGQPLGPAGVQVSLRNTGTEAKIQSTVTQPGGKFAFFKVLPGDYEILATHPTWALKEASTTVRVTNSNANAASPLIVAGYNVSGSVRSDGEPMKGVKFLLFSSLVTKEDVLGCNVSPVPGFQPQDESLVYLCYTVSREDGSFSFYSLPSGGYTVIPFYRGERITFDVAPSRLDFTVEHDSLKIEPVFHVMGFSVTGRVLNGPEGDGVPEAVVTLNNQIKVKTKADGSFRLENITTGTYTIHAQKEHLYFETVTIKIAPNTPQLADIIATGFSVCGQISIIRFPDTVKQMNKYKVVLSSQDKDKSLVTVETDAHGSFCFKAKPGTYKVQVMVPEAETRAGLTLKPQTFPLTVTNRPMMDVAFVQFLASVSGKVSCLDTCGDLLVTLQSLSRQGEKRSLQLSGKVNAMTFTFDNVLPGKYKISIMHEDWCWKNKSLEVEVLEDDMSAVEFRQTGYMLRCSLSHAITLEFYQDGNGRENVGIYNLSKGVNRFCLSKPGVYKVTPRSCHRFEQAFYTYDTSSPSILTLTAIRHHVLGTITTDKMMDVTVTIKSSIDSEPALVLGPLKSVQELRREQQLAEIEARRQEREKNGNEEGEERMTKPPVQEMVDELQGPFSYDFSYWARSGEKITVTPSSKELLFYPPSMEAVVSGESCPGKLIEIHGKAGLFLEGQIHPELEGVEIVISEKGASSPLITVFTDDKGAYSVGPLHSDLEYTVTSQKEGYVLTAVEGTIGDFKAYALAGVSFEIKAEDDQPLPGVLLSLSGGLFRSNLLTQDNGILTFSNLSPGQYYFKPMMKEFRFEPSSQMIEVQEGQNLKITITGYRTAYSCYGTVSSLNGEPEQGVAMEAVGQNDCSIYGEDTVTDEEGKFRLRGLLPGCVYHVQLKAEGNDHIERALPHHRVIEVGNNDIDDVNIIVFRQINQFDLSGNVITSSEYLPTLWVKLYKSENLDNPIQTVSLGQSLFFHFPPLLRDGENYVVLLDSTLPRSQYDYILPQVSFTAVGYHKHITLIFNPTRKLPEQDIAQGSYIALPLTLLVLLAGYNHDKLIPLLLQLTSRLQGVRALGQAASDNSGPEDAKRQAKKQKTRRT
UniProt Q3MII6: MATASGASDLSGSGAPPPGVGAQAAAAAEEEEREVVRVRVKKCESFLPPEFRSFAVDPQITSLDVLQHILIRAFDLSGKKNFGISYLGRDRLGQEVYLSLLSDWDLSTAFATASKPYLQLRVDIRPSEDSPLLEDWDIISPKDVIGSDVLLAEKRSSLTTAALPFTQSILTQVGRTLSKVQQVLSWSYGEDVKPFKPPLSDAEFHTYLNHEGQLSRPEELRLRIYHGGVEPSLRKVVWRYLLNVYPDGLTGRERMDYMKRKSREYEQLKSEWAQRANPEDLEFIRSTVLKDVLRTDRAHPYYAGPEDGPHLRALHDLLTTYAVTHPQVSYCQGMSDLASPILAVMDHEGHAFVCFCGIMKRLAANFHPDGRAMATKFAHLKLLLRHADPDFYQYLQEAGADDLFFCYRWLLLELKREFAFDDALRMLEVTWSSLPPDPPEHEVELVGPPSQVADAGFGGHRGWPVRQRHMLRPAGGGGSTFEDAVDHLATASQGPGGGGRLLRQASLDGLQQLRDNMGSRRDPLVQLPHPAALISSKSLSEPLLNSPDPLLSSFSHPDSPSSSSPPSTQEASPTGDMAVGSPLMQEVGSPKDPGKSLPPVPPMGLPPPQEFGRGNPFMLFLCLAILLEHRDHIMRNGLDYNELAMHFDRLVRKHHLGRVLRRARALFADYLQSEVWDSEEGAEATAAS
UniProt Q15532, whole entry: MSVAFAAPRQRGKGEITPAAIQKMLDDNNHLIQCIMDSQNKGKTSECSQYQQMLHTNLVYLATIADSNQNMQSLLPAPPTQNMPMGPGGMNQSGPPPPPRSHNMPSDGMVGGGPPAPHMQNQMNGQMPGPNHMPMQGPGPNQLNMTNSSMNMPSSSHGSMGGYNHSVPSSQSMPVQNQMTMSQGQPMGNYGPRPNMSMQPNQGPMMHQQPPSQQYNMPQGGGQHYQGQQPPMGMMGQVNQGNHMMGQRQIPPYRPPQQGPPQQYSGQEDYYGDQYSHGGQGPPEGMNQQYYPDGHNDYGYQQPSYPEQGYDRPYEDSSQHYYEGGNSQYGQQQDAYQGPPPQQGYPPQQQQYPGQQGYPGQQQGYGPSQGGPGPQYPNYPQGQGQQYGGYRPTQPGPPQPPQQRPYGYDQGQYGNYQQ
UniProt Q15021, whole entry: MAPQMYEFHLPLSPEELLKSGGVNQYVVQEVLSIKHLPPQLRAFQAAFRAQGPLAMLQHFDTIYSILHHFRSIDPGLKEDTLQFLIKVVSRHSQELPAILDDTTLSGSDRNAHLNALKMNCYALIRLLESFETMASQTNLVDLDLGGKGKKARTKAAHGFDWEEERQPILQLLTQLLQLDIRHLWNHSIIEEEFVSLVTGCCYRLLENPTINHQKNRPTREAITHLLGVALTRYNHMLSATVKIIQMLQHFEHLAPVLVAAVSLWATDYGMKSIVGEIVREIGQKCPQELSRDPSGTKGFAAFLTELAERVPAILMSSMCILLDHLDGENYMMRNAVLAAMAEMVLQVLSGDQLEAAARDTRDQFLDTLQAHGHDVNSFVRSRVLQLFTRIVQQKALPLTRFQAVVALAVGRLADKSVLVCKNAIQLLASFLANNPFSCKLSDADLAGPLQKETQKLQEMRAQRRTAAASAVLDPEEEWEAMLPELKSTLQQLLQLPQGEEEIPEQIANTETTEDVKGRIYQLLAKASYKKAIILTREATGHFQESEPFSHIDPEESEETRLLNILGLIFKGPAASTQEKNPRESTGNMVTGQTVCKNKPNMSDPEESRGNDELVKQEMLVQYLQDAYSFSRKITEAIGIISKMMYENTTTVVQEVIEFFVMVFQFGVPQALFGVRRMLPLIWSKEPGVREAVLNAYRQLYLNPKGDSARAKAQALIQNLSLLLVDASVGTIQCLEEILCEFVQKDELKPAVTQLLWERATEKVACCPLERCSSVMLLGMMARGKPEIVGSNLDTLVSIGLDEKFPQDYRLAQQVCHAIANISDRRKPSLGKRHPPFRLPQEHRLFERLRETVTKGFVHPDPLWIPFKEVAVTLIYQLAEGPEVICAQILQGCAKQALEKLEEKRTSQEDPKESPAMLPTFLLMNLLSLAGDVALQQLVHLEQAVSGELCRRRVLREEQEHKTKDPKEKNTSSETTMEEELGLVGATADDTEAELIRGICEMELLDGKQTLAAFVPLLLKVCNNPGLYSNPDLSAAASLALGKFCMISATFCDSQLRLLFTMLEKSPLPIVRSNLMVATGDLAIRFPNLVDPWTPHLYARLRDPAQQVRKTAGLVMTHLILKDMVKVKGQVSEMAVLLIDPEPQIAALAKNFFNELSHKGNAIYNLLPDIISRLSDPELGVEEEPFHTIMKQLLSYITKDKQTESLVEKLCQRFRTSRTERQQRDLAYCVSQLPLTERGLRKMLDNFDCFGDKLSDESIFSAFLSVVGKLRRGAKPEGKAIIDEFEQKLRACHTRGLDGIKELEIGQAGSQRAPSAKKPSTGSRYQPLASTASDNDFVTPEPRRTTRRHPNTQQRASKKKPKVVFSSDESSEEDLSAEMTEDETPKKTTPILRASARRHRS
UniProt Q15031: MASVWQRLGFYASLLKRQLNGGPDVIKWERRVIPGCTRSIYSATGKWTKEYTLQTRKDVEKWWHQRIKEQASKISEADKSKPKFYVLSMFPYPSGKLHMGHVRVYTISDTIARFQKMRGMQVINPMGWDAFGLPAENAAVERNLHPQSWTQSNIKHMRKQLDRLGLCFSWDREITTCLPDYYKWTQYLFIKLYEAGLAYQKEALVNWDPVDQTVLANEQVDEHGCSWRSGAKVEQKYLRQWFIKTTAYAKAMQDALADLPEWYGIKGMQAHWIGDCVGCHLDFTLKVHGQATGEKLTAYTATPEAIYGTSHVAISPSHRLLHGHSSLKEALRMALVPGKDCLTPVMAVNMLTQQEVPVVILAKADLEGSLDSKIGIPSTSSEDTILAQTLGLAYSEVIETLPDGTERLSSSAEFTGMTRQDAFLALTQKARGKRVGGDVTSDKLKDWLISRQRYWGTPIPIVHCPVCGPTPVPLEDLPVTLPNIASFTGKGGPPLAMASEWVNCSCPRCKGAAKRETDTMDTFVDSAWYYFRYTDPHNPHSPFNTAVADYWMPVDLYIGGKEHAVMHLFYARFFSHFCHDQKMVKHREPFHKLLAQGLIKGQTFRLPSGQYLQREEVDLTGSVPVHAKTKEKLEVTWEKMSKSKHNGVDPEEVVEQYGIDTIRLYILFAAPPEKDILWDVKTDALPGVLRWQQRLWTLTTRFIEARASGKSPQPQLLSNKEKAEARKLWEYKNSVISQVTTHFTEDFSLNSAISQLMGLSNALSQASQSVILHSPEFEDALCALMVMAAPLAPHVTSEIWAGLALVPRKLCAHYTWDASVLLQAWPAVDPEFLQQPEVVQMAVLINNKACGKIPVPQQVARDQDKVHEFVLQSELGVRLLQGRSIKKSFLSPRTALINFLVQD
UniProt Q15628: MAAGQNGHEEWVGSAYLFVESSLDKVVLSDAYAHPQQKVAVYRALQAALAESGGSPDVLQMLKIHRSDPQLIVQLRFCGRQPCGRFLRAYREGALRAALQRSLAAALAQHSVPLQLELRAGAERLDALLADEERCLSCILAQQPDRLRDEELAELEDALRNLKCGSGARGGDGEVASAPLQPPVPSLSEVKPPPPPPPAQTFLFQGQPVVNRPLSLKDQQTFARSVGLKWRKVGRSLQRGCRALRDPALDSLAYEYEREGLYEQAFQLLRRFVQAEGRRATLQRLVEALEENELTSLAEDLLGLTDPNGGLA
UniProt Q15084: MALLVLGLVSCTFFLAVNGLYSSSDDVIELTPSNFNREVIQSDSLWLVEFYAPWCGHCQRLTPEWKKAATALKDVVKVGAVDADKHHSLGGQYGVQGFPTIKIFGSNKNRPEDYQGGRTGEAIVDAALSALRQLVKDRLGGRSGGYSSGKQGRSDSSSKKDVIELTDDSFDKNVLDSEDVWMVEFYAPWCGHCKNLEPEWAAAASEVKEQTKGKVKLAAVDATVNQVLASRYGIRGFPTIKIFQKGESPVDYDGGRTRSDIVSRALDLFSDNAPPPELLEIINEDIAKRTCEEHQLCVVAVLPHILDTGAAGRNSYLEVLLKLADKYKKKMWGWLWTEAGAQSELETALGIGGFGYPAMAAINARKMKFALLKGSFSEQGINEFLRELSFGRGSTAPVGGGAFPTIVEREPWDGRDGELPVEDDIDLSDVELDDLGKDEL
UniProt Q15645: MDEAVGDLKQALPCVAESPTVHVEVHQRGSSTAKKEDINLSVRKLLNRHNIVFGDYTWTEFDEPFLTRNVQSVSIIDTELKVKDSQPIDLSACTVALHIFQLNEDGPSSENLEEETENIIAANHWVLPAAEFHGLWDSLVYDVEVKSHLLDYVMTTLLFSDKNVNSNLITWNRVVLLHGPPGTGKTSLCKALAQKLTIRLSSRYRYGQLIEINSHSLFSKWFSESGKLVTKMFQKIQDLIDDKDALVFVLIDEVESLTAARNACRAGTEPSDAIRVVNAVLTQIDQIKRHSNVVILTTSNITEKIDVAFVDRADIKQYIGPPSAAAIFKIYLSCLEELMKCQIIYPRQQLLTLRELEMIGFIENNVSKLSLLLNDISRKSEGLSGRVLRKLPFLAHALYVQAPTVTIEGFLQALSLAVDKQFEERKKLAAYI

These targets were tested with Cc1nc(Nc2ncc(C(=O)Nc3c(C)cccc3Cl)s2)cc(N2CCN(CCO)CC2)n1 [dasatinib] (assay: log2 fold change of tryptic peptide abundance, ligand vs vehicle (limited proteolysis) (log2 ratio); higher = more trypsin-susceptible (destabilized)). Details: ligand concentration: 5 uM; sample: K562 cleared lysate.

Target	log2 fold change
UniProt Q15651 (peptide sequence: KSPENTEGK, peptide start residue: 5)	0.126
CPSF6 (peptide sequence: GFALVGVGSEASSK, peptide start residue: 125) (UniProt Q16630)	-0.14
TAF9 (peptide sequence: DMGITEYEPR, peptide start residue: 25) (UniProt Q16594)	-0.192
TERF2 (peptide sequence: RSDTMAGGGGSSDGSGR, peptide start residue: 39) (UniProt Q15554)	-0.474
TAF11 (peptide sequence: VDEDEIQK, peptide start residue: 98) (UniProt Q15544)	0.175
MAD2L1BP (peptide sequence: VLILLGGNALSPK, peptide start residue: 150) (UniProt Q15013)	-0.258
RBBP5 (peptide sequence: TDSQDLVASFR, peptide start residue: 180) (UniProt Q15291)	-0.451
UniProt Q15369 (peptide sequence: EIPSHVLSK, peptide start residue: 64)	-0.0663
NONO (peptide sequence: AGEVFIHK, peptide start residue: 100) (UniProt Q15233)	-0.14
CHD9 (peptide sequence: TQTSSFDIQK, peptide start residue: 1589) (UniProt Q3L8U1)	0.578
NOMO1 (peptide sequence: ALGQAASDNSGPEDAKR, peptide start residue: 1196) (UniProt Q15155)	-0.109
SNAPC1 (peptide sequence: AFSVVIQASK, peptide start residue: 269) (UniProt Q16533)	-0.121
TAF5 (peptide sequence: SKKQDPNAPPQNR, peptide start residue: 414) (UniProt Q15542)	0.328
TBC1D25 (peptide sequence: RDPLVQLPHPAALISSK, peptide start residue: 521) (UniProt Q3MII6)	-0.224
CYTH1 (peptide sequence: QELLADIQR, peptide start residue: 28) (UniProt Q15438)	-0.0915
SS18 (peptide sequence: QRGKGEITPAAIQK, peptide start residue: 10) (UniProt Q15532)	-0.689
NCAPD2 (peptide sequence: QLYLNPK, peptide start residue: 699) (UniProt Q15021)	-0.246
NRF1 (peptide sequence: RPHVFESNPSIR, peptide start residue: 93) (UniProt Q16656)	-0.38
UniProt Q32P28 (peptide sequence: EADFKDLETQPHMQEFR, peptide start residue: 194)	0.431
FSCN1 (peptide sequence: WSLQSEAHR, peptide start residue: 101) (UniProt Q16658)	0.356
INF2 (peptide sequence: CSNEEVAAMIR, peptide start residue: 650) (UniProt Q27J81)	0.73
TCEAL1 (peptide sequence: KDLFEGRPPMEQPPCGVGK, peptide start residue: 76) (UniProt Q15170)	0.148
RCN1 (peptide sequence: DYDRDKDDK, peptide start residue: 126) (UniProt Q15293)	-0.816
ERCC6L (peptide sequence: DIFPNEK, peptide start residue: 49) (UniProt Q2NKX8)	-0.076
LARS2 (peptide sequence: VYTISDTIAR, peptide start residue: 104) (UniProt Q15031)	0.217
TRADD (peptide sequence: NLKCGSGAR, peptide start residue: 161) (UniProt Q15628)	-0.169
PDIA6 (peptide sequence: LADKYKK, peptide start residue: 323) (UniProt Q15084)	-0.566
TRIP13 (peptide sequence: HSNVVILTTSNITEKIDVAFVDR, peptide start residue: 290) (UniProt Q15645)	-0.582

Rewritten with each value named: part of the list above.
SS18 (peptide sequence: QRGKGEITPAAIQK, peptide start residue: 10) (UniProt Q15532)
  log2 fold change: -0.689
NCAPD2 (peptide sequence: QLYLNPK, peptide start residue: 699) (UniProt Q15021)
  log2 fold change: -0.246
